This is an account of results in paper PMC3619129.

Results are given in words; binding and its absence hold for the method and conditions named. In cells and extracts the contact can be indirect. Some binding calls cover weakened binding; strength is not graded here.

This assay has as its target T1, P-selectin glycoprotein ligand-1 (human (endogenous in T cells)) (UniProt Q14242).
T1 sequence: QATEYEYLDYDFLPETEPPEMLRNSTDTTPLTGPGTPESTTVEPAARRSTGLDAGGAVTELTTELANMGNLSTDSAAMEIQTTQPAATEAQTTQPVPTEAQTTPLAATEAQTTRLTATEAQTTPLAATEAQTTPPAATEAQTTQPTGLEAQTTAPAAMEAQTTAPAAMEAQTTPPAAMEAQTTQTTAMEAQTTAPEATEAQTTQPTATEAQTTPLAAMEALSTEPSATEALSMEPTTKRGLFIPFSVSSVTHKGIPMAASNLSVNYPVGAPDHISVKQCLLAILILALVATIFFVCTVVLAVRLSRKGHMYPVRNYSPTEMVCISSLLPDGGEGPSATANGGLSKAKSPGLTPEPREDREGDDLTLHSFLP
Put plainly: proximity ligation; in situ PLA in freshly isolated human T cells, without chemokine or stimulated 15 min with SDF-1; polyclonal rabbit anti-flotillin-2 and murine monoclonal anti-PSGL-1; control with the anti-flotillin-2 antibody only; unpublished observations (Baumann et al.).

B1: flotillin-2 (protein, UniProt Q14254 1-428)
chain: MGNCHTVGPNEALVVSGGCCGSDYKQYVFGGWAWAWWCISDTQRISLEIMTLQPRCEDVETAEGVALTVTGVAQVKIMTEKELLAVACEQFLGKNVQDIKNVVLQTLEGHLRSILGTLTVEQIYQDRDQFAKLVREVAAPDVGRMGIEILSFTIKDVYDKVDYLSSLGKTQTAVVQRDADIGVAEAERDAGIREAECKKEMLDVKFMADTKIADSKRAFELQKSAFSEEVNIKTAEAQLAYELQGAREQQKIRQEEIEIEVVQRKKQIAVEAQEILRTDKELIATVRRPAEAEAHRIQQIAEGEKVKQVLLAQAEAEKIRKIGEAEAAVIEAMGKAEAERMKLKAEAYQKYGDAAKMALVLEALPQIAAKIAAPLTKVDEIVVLSGDNSKVTSEVNRLLAELPASVHALTGVDLSKIPLIKKATGVQV
Regarding B1, the binding entry is on record as “binds”.
